From publication PMC4851335
These are yes or no findings as the source states them, for the method shown. In cells and extracts the contact can be indirect. Some binding calls cover weakened binding; strength is not graded here. Tags and fused reporters may be left off the sequences shown.

B1: SIZ1-YFP^C (SUMO E3 ligase SIZ1 fused with the C-terminal half of YFP) (protein, UniProt Q680Q4 1-884)
chain: MDLEANCKEKLSYFRIKELKDVLTQLGLSKQGKKQELVDRILTLLSDEQAARLLSKKNTVAKEAVAKLVDDTYRKMQVSGASDLASKGQVSSDTSNLKVKGEPEDPFQPEIKVRCVCGNSLETDSMIQCEDPRCHVWQHVGCVILPDKPMDGNPPLPESFYCEICRLTRADPFWVTVAHPLSPVRLTATTIPNDGASTMQSVERTFQITRADKDLLAKPEYDVQAWCMLLNDKVLFRMQWPQYADLQVNGVPVRAINRPGGQLLGVNGRDDGPIITSCIRDGVNRISLSGGDVRIFCFGVRLVKRRTLQQVLNLIPEEGKGETFEDALARVRRCIGGGGGDDNADSDSDIEVVADFFGVNLRCPMSGSRIKVAGRFLPCVHMGCFDLDVFVELNQRSRKWQCPICLKNYSVEHVIVDPYFNRITSKMKHCDEEVTEIEVKPDGSWRVKFKRESERRELGELSQWHAPDGSLCPSAVDIKRKMEMLPVKQEGYSDGPAPLKLGIRKNRNGIWEVSKPNTNGLSSSNRQEKVGYQEKNIIPMSSSATGSGRDGDDASVNQDAIGTFDFVANGMELDSISMNVDSGYNFPDRNQSGEGGNNEVIVLSDSDDENDLVITPGPAYSGCQTDGGLTFPLNPPGIINSYNEDPHSIAGGSSGLGLFNDDDEFDTPLWSFPSETPEAPGFQLFRSDADVSGGLVGLHHHSPLNCSPEINGGYTMAPETSMASVPVVPGSTGRSEANDGLVDNPLAFGRDDPSLQIFLPTKPDASAQSGFKNQADMSNGLRSEDWISLRLGDSASGNHGDPATTNGINSSHQMSTREGSMDTTTETASLLLGMNDSRQDKAKKQRSDNPFSFPRQKRSNNEQDHQTRHRSLNKICIILCAGKN
B2: SIZ1-GFP (expressed in Col-0 protoplasts) (protein, UniProt Q680Q4 1-884)
chain: B1 chain

How the values were obtained:
[1] = target: T1, COP1-YFP^N (CONSTITUTIVE PHOTOMORPHOGENIC 1 fused with the N-terminal half of YFP) (Arabidopsis) (UniProt P43254); assay: split reporter; COP1-YFP^N and SIZ1-YFP^C co-expressed in N. benthamiana leaves by Agrobacterium infiltration; YFP fluorescence in the nucleus read under darkness or after 1 h white light (100 umol m^-2 s^-1)
T1 sequence: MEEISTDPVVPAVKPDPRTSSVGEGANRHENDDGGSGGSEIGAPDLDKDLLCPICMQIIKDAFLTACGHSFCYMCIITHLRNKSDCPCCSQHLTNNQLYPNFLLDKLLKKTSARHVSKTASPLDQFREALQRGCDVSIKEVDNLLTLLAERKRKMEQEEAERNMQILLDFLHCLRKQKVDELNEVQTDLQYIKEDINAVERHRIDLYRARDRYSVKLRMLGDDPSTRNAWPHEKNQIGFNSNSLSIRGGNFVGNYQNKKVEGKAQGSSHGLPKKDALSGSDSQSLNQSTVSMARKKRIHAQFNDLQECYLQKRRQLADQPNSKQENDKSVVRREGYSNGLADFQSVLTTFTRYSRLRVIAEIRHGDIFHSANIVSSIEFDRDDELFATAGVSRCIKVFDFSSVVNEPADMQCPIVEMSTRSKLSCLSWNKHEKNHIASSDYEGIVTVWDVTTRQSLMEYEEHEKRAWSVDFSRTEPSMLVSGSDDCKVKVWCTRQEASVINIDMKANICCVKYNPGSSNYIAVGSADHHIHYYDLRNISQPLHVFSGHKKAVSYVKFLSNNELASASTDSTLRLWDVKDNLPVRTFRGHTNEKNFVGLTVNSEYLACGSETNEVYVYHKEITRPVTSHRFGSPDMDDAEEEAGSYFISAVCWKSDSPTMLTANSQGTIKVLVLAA

[2] = target: T2, Myc-COP1 (expressed in Col-0 protoplasts) (Arabidopsis) (UniProt P43254); assay: co-IP; Myc-COP1 and SIZ1-GFP separately expressed in Col-0 protoplasts, protein extracts mixed; anti-Myc-conjugated agarose beads; SIZ1-GFP detected with anti-GFP antibody
T2 sequence: T1 sequence

Binder | binding [1] | binding [2]
B1 | binds | –
B2 | – | binds
